The values below come from doi:10.1101/2022.08.17.504273.

Amino acid sequences for entries named in this document (tags omitted). A change or cut given only in a name is not applied to a line headed by its entry. Chains listed by the source or under a name are the forms on record and can include a tag or linker.
UniProt Q9NZ32: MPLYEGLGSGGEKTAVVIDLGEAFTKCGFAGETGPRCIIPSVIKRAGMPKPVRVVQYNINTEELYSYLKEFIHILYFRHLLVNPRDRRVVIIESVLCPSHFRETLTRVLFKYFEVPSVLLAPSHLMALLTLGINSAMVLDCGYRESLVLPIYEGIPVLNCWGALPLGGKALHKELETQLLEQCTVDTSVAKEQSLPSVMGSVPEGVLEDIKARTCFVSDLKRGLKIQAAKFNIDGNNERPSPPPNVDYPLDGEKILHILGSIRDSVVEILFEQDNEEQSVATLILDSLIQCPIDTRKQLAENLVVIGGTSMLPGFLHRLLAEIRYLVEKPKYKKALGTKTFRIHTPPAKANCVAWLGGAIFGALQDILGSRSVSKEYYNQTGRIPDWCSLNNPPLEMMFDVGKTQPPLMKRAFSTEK
UniProt Q9UJW0: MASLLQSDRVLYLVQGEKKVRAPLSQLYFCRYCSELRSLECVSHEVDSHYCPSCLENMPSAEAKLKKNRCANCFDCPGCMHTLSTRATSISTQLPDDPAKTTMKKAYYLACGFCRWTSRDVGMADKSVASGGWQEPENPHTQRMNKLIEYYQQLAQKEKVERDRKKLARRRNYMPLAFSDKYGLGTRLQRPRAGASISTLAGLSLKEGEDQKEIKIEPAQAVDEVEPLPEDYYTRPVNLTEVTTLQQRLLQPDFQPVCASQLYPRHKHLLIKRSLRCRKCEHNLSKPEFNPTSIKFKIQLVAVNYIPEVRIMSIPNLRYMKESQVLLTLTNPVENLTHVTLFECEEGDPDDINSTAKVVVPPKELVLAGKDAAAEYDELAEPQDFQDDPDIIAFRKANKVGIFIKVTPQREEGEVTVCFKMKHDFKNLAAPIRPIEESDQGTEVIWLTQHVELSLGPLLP
UniProt O00399: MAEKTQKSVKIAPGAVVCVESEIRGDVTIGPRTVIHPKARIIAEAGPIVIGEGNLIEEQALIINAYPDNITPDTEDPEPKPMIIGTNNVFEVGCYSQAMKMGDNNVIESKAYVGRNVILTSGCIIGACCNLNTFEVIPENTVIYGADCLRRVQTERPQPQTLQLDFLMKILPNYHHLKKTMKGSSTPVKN
UniProt Q9BTE1: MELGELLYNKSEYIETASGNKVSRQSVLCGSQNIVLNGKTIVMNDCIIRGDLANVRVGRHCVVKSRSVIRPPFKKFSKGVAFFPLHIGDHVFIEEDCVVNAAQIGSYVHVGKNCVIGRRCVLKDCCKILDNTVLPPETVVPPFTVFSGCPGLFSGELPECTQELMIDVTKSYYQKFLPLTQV
human Arf6 (12-175_Q67L) (P62330, form named): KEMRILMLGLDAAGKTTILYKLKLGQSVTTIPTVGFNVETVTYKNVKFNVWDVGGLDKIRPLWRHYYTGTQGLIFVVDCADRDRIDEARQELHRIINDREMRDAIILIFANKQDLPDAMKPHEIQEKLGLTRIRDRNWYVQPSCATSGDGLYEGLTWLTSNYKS

Experiment in all cases: pull-down
In assay [1] the target is T1, mouse JIP3^185–505 (JIP3 186-505) (mouse) (UniProt Q9ESN9).
T1 sequence: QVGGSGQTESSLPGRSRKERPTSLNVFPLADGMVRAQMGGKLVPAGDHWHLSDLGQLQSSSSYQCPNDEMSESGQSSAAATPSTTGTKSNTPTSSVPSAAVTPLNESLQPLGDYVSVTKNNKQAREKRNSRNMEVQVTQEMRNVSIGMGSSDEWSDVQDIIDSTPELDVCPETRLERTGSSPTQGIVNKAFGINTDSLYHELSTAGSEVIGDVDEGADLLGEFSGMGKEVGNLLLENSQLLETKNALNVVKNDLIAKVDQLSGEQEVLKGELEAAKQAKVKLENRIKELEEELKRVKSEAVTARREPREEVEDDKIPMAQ

Assay [2] addresses T2, mouse JIP3 186-505_L439P (mouse) (UniProt Q9ESN9).
T2 sequence: T1 sequence with L254P

For assay [3], the target named is T3, mouse JIP3 186-505_L383A/E386A (mouse) (UniProt Q9ESN9).
T3 sequence: T1 sequence with L198A, E201A

Positions count from the first letter of the chain named. No constants are given. Whether binding was seen depends on the method and setting. Some binding calls cover weakened binding; strength is not graded here.

Regarding “dynactin pointed end complex (Arp11, p62, p27, p25-6xHis) (from UniProt Q9NZ32;Q9UJW0;O00399;Q9BTE1)”, the binding entry in assay [1] is “binds”; in assay [2], “binds”; in assay [3], “no binding”.

Take “human Arf6 (12-175_Q67L) (from UniProt P62330 12-175) (domain or fragment)”: the binding result in assay [2] is “no binding”.
